Entries after “also recorded” stand apart in the source; their conditions may differ. Counter-ions that a name gives are not always drawn.
Test system: re-calcified human blood effluent
Assay: On-chip anticoagulation of outflowing blood through the anticoagulant port
Conditions: sodium citrate introduced through the anticoagulant port vs none

## O=C(O)CC(O)(CC(=O)O)C(=O)O [sodium citrate]
  state of blood collected from the effluent: allows samples to flow freely; also recorded: soluble (not clotted) blood

Source: patent US11150255B2, “Additive channels” (Emulate Inc., priority 2016, dated 2021)
